Test results: PubChem BioAssay AID1745850 (National Center for Advancing Translational Sciences (NCATS), 2022)
In all, about 2,100 compounds went through this assay and about 260 (12%) were called active. The inconclusive results got no clear call from the source; some entries with a clear call stand among them for comparison. The call rests on the fitted dose curve; in most records, active means well fitted cell-killing curve with a large enough effect; inconclusive means small, poorly fitted or top-dose-only effect, or effect the other way; inactive means flat fitted curve, though single readings scatter. A potency beside an inconclusive call is a rough fit, not a confirmed value.

assay: Viability Counterscreen for Confirmatory qHTS for Inhibitors of ATXN expression; details: HEK-293 ATXN2-luc cells viability, CellTiter-Fluor, 24 h; activity change, negative = cytotoxicity: at 11.5 µM (top of the series) unless noted; further: nearly all actives have a fitted effect of over 50% in size
Method in brief: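 Cells with an ATXN2-luciferase reporter were dosed in a dilution series for 24 h at 37 degrees C. Viability was read first with Gly-Phe-AFC at 25 uM final (fluorescence, ex 405/em 540), then SteadyGlo luminescence. Medium-only wells defined 100% inhibition.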
Potency means the concentration at half of the fitted maximal effect.

With CCCCC(=O)NC(c1ccco1)c1cc(Cl)c2cccnc2c1O (stereo not given) as the compound, how does the Potency read?
The Potency was inconclusive: 11.2 µM [cytotoxic, partial curve, poor fit].

With COc1ccc(-c2n(CC(=O)OC3CC(C)CCC3C(C)C)c3ccccc3[n+]2C)cc1 (stereo not given) as the compound, how does the Potency read?
The Potency was active: 10 µM.

For CCc1ccc(-c2nc(CS(=O)CC(=O)NCc3ccco3)c(C)o2)cc1 (stereo not given), which “activity change, negative = cytotoxicity” value is on record?
The value was inactive: -6.43%.

For COc1ccc(-c2n[nH]c(C)c2-c2cnn(-c3ccccc3)c2)c(O)c1C, which Potency is on record?
Its Potency is inconclusive: 28.2 µM [cytotoxic, single point].

For COc1cc(OC)c(C(=O)C=Cc2ccc(OC)c(OC)c2)c(OC)c1, which Potency is on record?
The Potency was inconclusive: 28.2 µM [cytotoxic, single point].

Which Potency does the source give for CCOc1cc(/C=N/Nc2cc(C)nc(-n3nc(C)cc3C)n2)ccc1O here?
The Potency was active: 3.98 µM.

Which “activity change, negative = cytotoxicity” value does the source give for Cn1c(S(=O)(=O)c2ccc([N+](=O)[O-])cc2)nc(Br)c1Br here?
The value was inactive: -5.53%.

Which “activity change, negative = cytotoxicity” value does the source give for CC(C)=CCc1ccc(O)c(=O)cc1C(C)C here?
The value was inactive: -21.2%.

For CCN(CC)c1ccc(/C=N/NC(=O)CCC(=O)NCc2ccccc2)c(O)c1, which Potency is on record?
The Potency was inconclusive: 7.94 µM [cytotoxic, full curve].

With CN(c1ccccc1)c1ccc(/C=N/NC(=O)CC#N)cc1 as the compound, how does the Potency read?
Its Potency is inconclusive: 39.8 µM [cytotoxic, single point].

Which “activity change, negative = cytotoxicity” value does the source give for COc1cccc(/C=N/Nc2ncnc3c2ncn3Cc2ccccc2)c1O here?
Its value is inactive: -7.4%.

Which Potency does the source give for CC(C)(CC(=O)N1CCN(c2ccc(Cl)cc2)CC1)CC1=NS(=O)(=O)c2ccccc2N1 here?
The Potency was inconclusive: 3.16 µM [cytotoxic, single point].

For O=C(N/N=C/c1cc(Cl)ccc1O)c1ccncc1, which Potency is on record?
Its Potency is inconclusive: 8.91 µM [cytotoxic, full curve].

With COc1ccccc1CNc1nc(NCc2ccc(NC(C)=O)cc2)c2sccc2n1 as the compound, how does the Potency read?
Its Potency is inconclusive: 5.62 µM [cytotoxic, single point].

Which “activity change, negative = cytotoxicity” value does the source give for NS(=O)(=O)c1ccc(CCNC(=O)COC(=O)/C=C/c2cc(Br)ccc2F)cc1 here?
The value was inactive: 4.96%.

With Cc1ccc(/C=C2\SC(=S)N(CCCC(=O)NC3CCCC3)C2=O)cc1 as the compound, how does the Potency read?
The Potency was inconclusive: 28.2 µM [cytotoxic, single point].

With CCN(CC)S(=O)(=O)c1ccc(C(=O)Nc2ccc(Cc3ccncc3)cc2)cc1 as the compound, how does the Potency read?
Its Potency is inconclusive: 14.1 µM [cytotoxic, partial curve, poor fit].

Which Potency does the source give for CCOC(=O)c1c(C)oc2c(F)c(F)c(F)c(F)c2c1=O here?
The Potency was inconclusive: 3.16 µM [cytotoxic, partial curve].

For O=C(COc1ccccc1Cl)Nc1ccc(N2CCN(C(=O)c3ccccc3)CC2)cc1, which Potency is on record?
Its Potency is inconclusive: 4.47 µM [cytotoxic, single point].

With O=C(N/N=C/c1c(O)ccc2ccccc12)c1cccc(C(F)(F)F)c1 as the compound, how does the Potency read?
The Potency was inconclusive: 8.91 µM [cytotoxic, partial curve].

For COC1=C(C)C(O)=C(C(=O)/C=C/c2ccccc2)C(=O)C1(C)C, which Potency is on record?
Its Potency is inconclusive: 39.8 µM [cytotoxic, single point].

Which “activity change, negative = cytotoxicity” value does the source give for COc1ccc(N2C3=C(CC4=C2CC(C)(C)CC4=O)C(=O)CC(C)(C)C3)cc1 here?
Its value is inactive: -22%.

For O=C(Oc1c(CN2CCOCC2)cc(Cl)c2cccnc12)c1cccs1, which Potency is on record?
The Potency was inconclusive: 25.1 µM [cytotoxic, partial curve].

For NNC(=O)/C(=N/Nc1ccccc1)S(=O)(=O)c1ccc(Cl)cc1, which Potency is on record?
The Potency was inconclusive: 12.6 µM [cytotoxic, partial curve].

For O=C(NC1C=CS(=O)(=O)C1)c1sc2ccccc2c1Cl (stereo not given), which Potency is on record?
Its Potency is inconclusive: 3.16 µM [cytotoxic, partial curve].

With CC(C)(C)n1nnnc1C(c1cccs1)N(Cc1ccc(Cl)cc1)CC1CCCO1 (stereo not given) as the compound, how does the Potency read?
The Potency was inconclusive: 39.8 µM [cytotoxic, single point].

With N#Cc1nc(COc2ccc(-c3ccccc3)cc2)oc1NCc1cccnc1 as the compound, how does the “activity change, negative = cytotoxicity” value read?
Its value is inactive: -11.9%.

For CCN(CC)CCC(c1ccc2c(c1)OCO2)c1c(OC)cc(OC)c2c(-c3ccccc3)cc(=O)oc12 (stereo not given), which Potency is on record?
The Potency was active: 20 µM.

For O=C(CSCc1ccc(Cl)cc1)Nc1cc([N+](=O)[O-])ccc1O, which Potency is on record?
The Potency was inconclusive: 3.16 µM [cytotoxic, single point].

With Cc1onc(-c2ccccc2)c1C(=O)Nc1ccc(S(=O)(=O)NC(C)(C)C)cc1 as the compound, how does the “activity change, negative = cytotoxicity” value read?
Its value is inactive: -0.495% [at 57.5 µM].

For C=CCOc1ccc(CNc2ccc3[nH]c(=O)[nH]c3c2)cc1OC, which “activity change, negative = cytotoxicity” value is on record?
The value was inactive: -14.9% [at 57.5 µM].

For Clc1ccc(SCc2cc(N3CCOCC3)nc(-c3ccccn3)n2)cc1, which Potency is on record?
Its Potency is active: 10 µM.

Which Potency does the source give for CC(C)(CO)NCc1c(OCc2ccc(Cl)cc2)ccc2ccccc12 here?
The Potency was inconclusive: 35.5 µM [cytotoxic, partial curve].

For Cc1ccc2cc(C3C(C#N)=C(N)Oc4c3ccc3cccnc43)c(=O)[nH]c2c1 (stereo not given), which Potency is on record?
The Potency was inconclusive: 20 µM [cytotoxic, partial curve].

For Cn1c(=O)c2c(nc(SCCN3CCOCC3)n2Cc2cccc3ccccc23)n(C)c1=O, which “activity change, negative = cytotoxicity” value is on record?
The value was inactive: -9.68%.

For Cc1ccc2nc(-c3ccccc3)nn2c1, which “activity change, negative = cytotoxicity” value is on record?
The value was inactive: -10.1%.

With O=C(CN(c1cccc(Br)c1)S(=O)(=O)c1ccccc1)N/N=C/c1cc([N+](=O)[O-])ccc1O as the compound, how does the Potency read?
Its Potency is inconclusive: 20 µM [cytotoxic, partial curve].

For COc1ccc(C2=NN(C(=O)c3ccc(Cl)c([N+](=O)[O-])c3)C(c3ccccc3)C2)cc1 (stereo not given), which Potency is on record?
Its Potency is inconclusive: 31.6 µM [cytotoxic, partial curve].

Which Potency does the source give for OCCN(Cc1ccccc1)CC(O)COc1ccc(-c2ccccc2)cc1 (stereo not given) here?
Its Potency is inconclusive: 39.8 µM [cytotoxic, single point].

For CC(C)(C)c1ccc(C(=O)N2CCCCCC2=O)cc1, which “activity change, negative = cytotoxicity” value is on record?
The value was inactive: -15.8% [at 57.5 µM].

Which “activity change, negative = cytotoxicity” value does the source give for COc1ccc(N=Cc2cc3c(cc2O)OC(N)=C(C#N)C3c2ccccc2)cc1 (stereo not given) here?
The value was inactive: -26.4%.

For C=CCn1c(CNc2ccc(C)cc2)nnc1SCC(=O)N/N=C/c1ccc(O)cc1O, which Potency is on record?
Its Potency is inconclusive: 20 µM [cytotoxic, partial curve].

For COc1ccc2nc(C)c3c(c2c1)OC(C(C)(Cl)Br)C3 (stereo not given), which “activity change, negative = cytotoxicity” value is on record?
Its value is inactive: -19.2%.

Which Potency does the source give for NC(N)=N/N=C/c1ccc(Cl)c(Cl)c1 here?
Its Potency is active: 28.2 µM.

Which Potency does the source give for CC1(C)c2[nH]c3ccccc3c2C[C@H]2C(=O)N(Cc3cccc(F)c3)C(=O)N21 here?
Its Potency is inconclusive: 28.2 µM [cytotoxic, single point].
